These are yes or no findings as the source states them, for the method shown. Binding seen in cells or lysates may run through a third protein.
Columns and labels:
[1] = molecular target: InlJ on the surface of InlJ over-expressing L. monocytogenes (Listeria monocytogenes) (UniProt Q8Y3L4); test: pull-down; bacterial pull-down: whole L. monocytogenes incubated 1 h at room temperature with cleared lysates of MVP-GFP transfected HeLa cells (Tris-HCl 50 mM pH 7.5, NaCl 150 mM, EDTA 2 mM, NP40 1%); five washes; Western blot
[2] = molecular target: InlJ on the surface of InlJ over-expressing L. monocytogenes (Listeria monocytogenes) (UniProt Q8Y3L4); test: pull-down; bacterial pull-down: whole L. monocytogenes (1 ml, OD600 1.0) in 20 mM HEPES pH 7.5, 150 mM NaCl, 1 mM CaCl2, 1 mM MgCl2, 0.2% BSA, room temperature; GST fusion protein added (GST-MVP 1 µg/ml) for 1 h; washes with 300 mM NaCl, 0.05% Tween 20; Western blot of bacterial pellets; only the binder purified

Amino acid sequences for entries named in this document (tags omitted). Residues count along the entry.
UniProt Q8Y3L4, residues 26-824: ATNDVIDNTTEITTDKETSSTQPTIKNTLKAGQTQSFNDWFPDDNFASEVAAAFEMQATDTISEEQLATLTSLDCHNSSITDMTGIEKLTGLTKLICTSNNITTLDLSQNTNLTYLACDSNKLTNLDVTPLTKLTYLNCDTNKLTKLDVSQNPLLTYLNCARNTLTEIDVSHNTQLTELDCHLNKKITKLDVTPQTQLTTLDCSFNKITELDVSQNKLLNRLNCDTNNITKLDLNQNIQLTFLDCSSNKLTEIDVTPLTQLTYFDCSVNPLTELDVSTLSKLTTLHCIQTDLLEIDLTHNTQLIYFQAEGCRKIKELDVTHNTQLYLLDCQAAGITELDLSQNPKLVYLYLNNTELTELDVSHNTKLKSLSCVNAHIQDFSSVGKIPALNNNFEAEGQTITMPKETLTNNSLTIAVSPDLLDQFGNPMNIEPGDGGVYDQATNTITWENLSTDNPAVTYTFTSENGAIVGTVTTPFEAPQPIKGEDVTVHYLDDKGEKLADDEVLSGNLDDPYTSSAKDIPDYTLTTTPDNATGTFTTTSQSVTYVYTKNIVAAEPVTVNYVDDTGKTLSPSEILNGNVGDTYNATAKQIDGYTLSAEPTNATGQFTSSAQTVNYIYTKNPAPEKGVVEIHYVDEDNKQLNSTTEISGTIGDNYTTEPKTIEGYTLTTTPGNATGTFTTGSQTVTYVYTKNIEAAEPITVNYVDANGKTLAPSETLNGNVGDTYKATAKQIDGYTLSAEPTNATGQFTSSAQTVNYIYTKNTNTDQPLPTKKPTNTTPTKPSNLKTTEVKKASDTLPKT
UniProt Q14764: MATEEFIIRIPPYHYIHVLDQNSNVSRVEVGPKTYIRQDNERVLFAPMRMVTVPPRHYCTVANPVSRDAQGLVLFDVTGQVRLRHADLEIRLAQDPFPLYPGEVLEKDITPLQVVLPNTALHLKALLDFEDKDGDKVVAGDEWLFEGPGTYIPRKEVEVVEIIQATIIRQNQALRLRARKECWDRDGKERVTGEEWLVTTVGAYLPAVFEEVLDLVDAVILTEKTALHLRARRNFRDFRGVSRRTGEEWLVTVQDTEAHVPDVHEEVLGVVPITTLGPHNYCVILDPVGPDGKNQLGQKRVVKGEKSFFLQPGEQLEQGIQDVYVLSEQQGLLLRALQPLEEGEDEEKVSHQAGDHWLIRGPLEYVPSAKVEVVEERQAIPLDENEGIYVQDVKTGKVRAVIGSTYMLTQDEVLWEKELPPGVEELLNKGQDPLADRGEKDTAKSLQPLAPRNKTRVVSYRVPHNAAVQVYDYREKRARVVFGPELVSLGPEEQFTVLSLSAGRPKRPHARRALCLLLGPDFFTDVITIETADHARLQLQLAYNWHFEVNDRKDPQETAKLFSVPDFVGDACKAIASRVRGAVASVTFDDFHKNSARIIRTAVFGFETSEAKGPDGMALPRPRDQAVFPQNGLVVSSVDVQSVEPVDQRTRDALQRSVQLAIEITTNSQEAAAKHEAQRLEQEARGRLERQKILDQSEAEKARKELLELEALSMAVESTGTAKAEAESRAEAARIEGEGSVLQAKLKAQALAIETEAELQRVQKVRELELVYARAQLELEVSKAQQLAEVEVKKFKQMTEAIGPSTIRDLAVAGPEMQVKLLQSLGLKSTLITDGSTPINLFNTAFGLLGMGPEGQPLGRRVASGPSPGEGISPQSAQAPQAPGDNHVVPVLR

| Substance | binding [1] | binding [2] |
| --- | --- | --- |
| MVP-GFP (from UniProt Q14764 1-893) | no binding | – |
| GST-tagged purified recombinant MVP protein (from UniProt Q14764 1-893) | – | no binding (tested: 1 µg/ml) |
